From PubChem BioAssay AID602388 (National Center for Advancing Translational Sciences (NCATS), 2012)
Inconclusive results, whose numbers are uncertain, are shown with a selection of clear calls. Potencies of inconclusive entries are doubtful fits and often do not repeat. Activity calls are given as the source filed them. Calls follow the shape of the dose curve; as a rule, active = well fitted inhibition curve with a large enough effect; inconclusive = small, poorly fitted or top-dose-only effect; inactive = flat fitted curve, though single readings scatter.

Protein sequences, listed by entry. Tags and fused reporters are not part of them. Lines headed by an entry give the natural chain unless they say otherwise; changes in a name come on top.
UniProt P49798: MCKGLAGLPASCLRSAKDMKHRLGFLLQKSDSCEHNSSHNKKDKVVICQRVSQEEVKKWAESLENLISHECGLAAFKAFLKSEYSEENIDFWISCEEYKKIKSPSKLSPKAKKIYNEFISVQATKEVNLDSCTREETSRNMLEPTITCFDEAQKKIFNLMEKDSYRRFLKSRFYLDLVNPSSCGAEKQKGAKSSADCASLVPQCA

Molecular target: Regulator of G-protein signaling 4 (Homo sapiens) (UniProt P49798)
Assay: qHTS for Inhibitors of Regulator of G Protein Signaling(RGS) 4: Hit Validation
Settings: RGS4 GAP activity, Transcreener GDP fluorescence polarization
Excerpt: G-protein-coupled receptors (GPCRs) are well-established targets for drug discovery and development. Members of the "regulator of G-protein signaling" (RGS)-protein superfamily have recently emerged as critical modulators of specific GPCR signaling pathways. […] Combining specific RGS domain inhibitors with existing GPCR agonists should potentiate cellular responses and could also increase the specificity of action of existing therapeutics. Small molecule modulators of RGS domain activity should also have clinical utility in inhibiting or potentiating the actions of endogenous GPCR agonists. In particular, the diversity of RGS proteins with highly localized and dynamically regulated distributions in the human brain makes this family of proteins attractive targets for pharmacotherapy of central nervous system (CNS) disorders such as Parkinson's disease, schizophrenia, and anxiety. […] This assay was used to screen the NIH Molecular Libraries Small Molecule Repository (MLSMR) in order to identify a small molecule that inhibits RGS4. NIH Chemical Genomics Center [NCGC] NIH Molecular Libraries Probe Centers Network [MLPCN] MLPCN Grant: DA030555 Assay Submitter (PI): David Siderovski, University of North Carolina Chapel Hill (School of Medicine)
Two microliters of 500nM (2x working concentration) is dispensed into black medium-binding solid-bottom Kalypsys plates. Then with the Kalypsys pintool 23nl of control and compounds are transferred; the control compound is […] CCG-4986 (working concentration). After a 10 minute incubation at room temperature 2ul of antibody is added with the Kalypsys dispenser; (-)RGS4/Transcreener GDP solution in columns 3 and 4 which consisted of 10nM (2x working concentration) Alexa633, 20uM GTP, and 20 ug/ml GDP antibody and (+)RGS4/Transcreener GDP solution in columns 1,2, and 5 to 48 which consists of 900nM RGS4 (2x working concentration), 10nM Alexa633, 20 ug/ml GDP antibody. The plate is centrifuged at 1000 RPM for 15 seconds to remove any possible bubbles and then incubated for 5 minutes at ambient room temperature. An initial fluorescent polarization read (620 nm/688 nm) is performed on the Envision before the plate is incubated for 90 minutes at 30 deg C at a relative humidity of 80%. The plate is once more centrifuged at 1000 RPM for 15 seconds and another Envision fluorescent polarization (620 nm/688 nm) read is carried out.

Potency, inconclusive:
COc1cc2c(NC3CCN(C)CC3)nc(N3CCCN(C)CC3)nc2cc1OCCCCCN 26.7 µM [inhibitor, partial curve], COc1ccc2[nH]cc(CCNc3ncnc4ccc(-c5ccoc5)cc34)c2c1 10.6 µM [inhibitor, partial curve], Cc1ccc(-c2nc3ccccn3c2Nc2ccc3c(c2)OCO3)o1 16.8 µM [inhibitor, partial curve], COc1ccccc1Nc1ncc(-c2cccs2)s1 9.47 µM [inhibitor, partial curve], O=C(Nc1nc(-c2ccccn2)cs1)c1cccc(-n2cnnn2)c1 26.7 µM [inhibitor, single point], c1ccc2c(NC3CC3)nc(-c3ccoc3)nc2c1 23.8 µM [inhibitor, partial curve], CC(C)c1ccc(Nc2c(-c3ccco3)nc3ccccn23)cc1 26.7 µM [inhibitor, partial curve]

Potency, active:
COc1cccc(-c2cncnc2NCc2cccnc2)c1 29.9 µM
